The other results are listed elsewhere or left out.
Legend:
Test in all cases: log2 fold change, soluble protein after heating vs DMSO (PISA); higher = thermal stabilisation; K562 lysate, 10 uM; active = over 0.2 and 3.5 SD of the protein, either way, in both replicates (recomputed)
[1] = compound: C=CC(=O)N1CCC[C@@H](n2nc(-c3ccc(Oc4ccccc4)cc3)c3c(N)ncnc32)C1 [ibrutinib]
Summary of the method: (§1)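 Thermal stability, expressed as log-two fold change relative to solvent controls, is given from duplicates. Crude K562 extract in PBS pH 7.4 with 1 mM MgCl2, at 1 mg/mL protein, was treated with 10 μM compound for 30 min and heated in aliquots for 3 min across 48°C-58°C. After pooling, adjustment to 0.5% NP-40 at 4°C and centrifugation at 21,000xg for 90 min, supernatant protein was measured by TMTpro 16plex LC-MS/MS with channel sums equalised.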

Protein sequences, listed by entry. Tags and fused reporters are not part of them. Lines headed by an entry give the natural chain unless they say otherwise; changes in a name come on top.
UniProt Q9UQC2, whole entry, looked up: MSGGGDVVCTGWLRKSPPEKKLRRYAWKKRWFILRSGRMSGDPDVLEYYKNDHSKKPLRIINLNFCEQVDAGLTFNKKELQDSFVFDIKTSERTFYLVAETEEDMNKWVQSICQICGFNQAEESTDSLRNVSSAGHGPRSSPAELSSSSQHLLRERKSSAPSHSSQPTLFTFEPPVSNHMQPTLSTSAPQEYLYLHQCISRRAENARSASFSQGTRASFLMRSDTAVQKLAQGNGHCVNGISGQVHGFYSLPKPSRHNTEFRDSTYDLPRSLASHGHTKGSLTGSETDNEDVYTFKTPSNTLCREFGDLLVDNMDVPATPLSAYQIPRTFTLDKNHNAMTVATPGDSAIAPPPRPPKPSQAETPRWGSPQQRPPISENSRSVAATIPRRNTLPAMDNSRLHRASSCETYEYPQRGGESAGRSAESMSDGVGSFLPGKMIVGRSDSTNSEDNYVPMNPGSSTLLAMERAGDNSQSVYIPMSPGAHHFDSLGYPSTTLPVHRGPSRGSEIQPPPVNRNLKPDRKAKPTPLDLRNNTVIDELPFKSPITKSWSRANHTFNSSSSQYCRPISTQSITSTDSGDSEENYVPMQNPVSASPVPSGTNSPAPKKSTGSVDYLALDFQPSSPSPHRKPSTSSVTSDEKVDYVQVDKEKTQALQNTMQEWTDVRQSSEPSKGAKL
UniProt Q8WXD5: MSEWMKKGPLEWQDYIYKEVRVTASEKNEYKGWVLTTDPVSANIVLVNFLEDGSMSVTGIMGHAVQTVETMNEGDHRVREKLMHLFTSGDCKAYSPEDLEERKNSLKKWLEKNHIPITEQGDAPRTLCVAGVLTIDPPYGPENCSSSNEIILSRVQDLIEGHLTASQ
UniProt Q13069: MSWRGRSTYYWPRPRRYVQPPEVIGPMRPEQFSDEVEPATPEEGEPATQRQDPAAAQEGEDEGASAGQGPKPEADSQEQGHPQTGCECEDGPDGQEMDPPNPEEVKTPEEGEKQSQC
UniProt Q8IY81: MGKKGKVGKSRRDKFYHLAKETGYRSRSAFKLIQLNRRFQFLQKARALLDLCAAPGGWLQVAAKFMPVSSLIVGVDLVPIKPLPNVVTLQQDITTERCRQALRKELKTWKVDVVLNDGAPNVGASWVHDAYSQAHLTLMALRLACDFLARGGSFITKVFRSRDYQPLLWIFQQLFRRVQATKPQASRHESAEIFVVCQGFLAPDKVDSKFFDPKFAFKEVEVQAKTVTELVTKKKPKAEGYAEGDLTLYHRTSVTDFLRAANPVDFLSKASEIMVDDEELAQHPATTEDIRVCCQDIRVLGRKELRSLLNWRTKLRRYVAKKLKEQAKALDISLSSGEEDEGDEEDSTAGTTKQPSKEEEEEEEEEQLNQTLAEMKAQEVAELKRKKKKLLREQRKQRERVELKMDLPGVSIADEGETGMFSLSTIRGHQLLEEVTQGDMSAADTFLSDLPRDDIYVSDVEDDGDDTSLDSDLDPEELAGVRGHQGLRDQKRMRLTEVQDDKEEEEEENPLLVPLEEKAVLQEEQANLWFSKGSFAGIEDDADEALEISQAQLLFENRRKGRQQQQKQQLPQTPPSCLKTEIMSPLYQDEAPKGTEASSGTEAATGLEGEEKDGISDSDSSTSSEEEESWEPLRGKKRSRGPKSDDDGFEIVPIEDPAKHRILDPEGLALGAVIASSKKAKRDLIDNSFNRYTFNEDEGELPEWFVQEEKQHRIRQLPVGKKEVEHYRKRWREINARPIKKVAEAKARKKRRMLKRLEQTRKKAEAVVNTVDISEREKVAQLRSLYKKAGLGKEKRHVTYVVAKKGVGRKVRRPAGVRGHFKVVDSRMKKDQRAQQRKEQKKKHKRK
UniProt Q6ZNW5: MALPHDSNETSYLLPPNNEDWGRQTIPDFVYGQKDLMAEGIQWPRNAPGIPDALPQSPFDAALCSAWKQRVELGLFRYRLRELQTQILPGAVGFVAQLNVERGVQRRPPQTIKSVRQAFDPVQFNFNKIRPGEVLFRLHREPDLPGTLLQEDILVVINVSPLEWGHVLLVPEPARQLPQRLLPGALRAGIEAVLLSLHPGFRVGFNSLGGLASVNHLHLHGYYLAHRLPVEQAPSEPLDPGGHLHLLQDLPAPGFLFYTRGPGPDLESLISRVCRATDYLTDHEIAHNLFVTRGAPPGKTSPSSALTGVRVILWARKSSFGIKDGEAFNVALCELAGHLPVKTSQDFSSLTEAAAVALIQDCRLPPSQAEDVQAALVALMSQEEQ
UniProt Q8NB37: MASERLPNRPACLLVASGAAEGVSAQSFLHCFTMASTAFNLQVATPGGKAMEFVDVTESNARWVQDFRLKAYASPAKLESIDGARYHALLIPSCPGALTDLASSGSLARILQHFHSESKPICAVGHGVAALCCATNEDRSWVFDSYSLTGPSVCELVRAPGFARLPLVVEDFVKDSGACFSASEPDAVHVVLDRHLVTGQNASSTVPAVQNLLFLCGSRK
UniProt P02794, whole entry, looked up: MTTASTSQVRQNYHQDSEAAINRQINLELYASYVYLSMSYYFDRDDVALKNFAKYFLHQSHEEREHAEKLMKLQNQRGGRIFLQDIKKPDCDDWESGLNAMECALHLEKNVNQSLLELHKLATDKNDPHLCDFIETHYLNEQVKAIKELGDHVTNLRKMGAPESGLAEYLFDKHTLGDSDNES
UniProt P57678: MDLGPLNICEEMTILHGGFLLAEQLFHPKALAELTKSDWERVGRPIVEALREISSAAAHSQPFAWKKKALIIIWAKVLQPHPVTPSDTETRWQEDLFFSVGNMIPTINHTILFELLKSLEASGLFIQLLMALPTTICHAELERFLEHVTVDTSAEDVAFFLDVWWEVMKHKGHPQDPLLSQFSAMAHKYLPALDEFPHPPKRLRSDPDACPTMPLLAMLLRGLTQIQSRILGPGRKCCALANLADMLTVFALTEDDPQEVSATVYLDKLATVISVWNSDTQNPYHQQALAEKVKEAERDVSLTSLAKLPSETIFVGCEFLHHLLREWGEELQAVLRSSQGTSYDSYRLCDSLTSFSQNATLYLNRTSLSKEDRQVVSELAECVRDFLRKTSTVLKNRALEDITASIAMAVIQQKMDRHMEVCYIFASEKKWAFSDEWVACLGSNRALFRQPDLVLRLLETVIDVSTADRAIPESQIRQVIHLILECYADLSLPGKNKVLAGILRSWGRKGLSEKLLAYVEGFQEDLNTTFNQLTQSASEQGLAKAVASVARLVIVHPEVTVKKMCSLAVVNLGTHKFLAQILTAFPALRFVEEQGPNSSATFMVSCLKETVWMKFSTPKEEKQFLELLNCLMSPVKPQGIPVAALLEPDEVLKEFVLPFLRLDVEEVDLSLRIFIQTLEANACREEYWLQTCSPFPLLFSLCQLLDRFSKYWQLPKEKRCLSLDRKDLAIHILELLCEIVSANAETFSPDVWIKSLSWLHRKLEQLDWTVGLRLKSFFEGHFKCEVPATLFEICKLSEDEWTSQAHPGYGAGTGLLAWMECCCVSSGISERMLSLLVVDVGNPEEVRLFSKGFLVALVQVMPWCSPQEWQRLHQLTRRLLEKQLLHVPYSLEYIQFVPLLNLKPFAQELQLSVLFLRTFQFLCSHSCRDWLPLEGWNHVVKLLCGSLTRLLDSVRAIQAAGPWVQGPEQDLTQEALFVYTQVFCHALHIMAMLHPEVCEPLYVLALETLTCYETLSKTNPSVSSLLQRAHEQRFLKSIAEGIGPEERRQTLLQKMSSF
UniProt Q8IWJ2: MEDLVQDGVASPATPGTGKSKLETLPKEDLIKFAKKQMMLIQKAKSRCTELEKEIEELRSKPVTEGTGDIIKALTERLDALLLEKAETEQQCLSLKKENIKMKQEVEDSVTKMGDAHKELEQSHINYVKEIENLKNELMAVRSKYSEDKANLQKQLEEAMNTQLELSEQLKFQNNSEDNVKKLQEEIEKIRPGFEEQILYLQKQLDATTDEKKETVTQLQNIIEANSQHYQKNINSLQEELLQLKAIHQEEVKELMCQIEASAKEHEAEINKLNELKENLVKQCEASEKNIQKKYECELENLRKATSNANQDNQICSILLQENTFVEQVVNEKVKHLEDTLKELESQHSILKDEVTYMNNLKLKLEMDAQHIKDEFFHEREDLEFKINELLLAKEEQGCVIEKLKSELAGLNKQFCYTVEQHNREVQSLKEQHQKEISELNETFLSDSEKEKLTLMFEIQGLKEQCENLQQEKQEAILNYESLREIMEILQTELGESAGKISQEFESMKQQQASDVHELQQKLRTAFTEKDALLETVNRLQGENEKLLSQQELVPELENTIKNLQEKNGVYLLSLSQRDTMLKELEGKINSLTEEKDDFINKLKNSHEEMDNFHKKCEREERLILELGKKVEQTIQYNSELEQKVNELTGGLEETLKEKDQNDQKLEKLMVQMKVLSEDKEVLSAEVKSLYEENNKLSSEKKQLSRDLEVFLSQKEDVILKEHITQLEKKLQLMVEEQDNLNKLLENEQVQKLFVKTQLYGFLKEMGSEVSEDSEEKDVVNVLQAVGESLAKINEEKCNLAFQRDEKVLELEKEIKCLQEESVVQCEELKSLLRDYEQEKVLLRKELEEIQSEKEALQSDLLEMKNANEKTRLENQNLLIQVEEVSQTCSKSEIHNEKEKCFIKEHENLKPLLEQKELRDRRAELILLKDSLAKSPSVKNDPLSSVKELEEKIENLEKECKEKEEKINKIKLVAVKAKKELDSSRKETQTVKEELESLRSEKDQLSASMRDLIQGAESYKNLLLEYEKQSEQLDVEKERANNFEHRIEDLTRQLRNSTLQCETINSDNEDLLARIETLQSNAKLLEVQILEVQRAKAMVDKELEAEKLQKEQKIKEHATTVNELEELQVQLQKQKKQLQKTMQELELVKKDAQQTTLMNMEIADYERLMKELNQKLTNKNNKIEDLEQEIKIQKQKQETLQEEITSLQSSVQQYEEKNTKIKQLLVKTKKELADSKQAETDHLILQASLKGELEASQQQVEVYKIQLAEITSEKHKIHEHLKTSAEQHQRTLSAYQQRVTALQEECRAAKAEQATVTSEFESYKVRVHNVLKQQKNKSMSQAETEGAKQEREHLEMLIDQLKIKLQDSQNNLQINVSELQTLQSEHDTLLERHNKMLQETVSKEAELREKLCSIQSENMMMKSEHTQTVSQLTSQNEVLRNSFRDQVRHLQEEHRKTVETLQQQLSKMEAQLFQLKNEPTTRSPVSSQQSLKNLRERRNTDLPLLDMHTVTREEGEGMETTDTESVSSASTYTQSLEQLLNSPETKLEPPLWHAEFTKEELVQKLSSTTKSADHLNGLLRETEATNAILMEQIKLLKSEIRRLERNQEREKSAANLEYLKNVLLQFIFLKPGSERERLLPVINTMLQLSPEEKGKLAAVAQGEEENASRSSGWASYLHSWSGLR
UniProt Q06210: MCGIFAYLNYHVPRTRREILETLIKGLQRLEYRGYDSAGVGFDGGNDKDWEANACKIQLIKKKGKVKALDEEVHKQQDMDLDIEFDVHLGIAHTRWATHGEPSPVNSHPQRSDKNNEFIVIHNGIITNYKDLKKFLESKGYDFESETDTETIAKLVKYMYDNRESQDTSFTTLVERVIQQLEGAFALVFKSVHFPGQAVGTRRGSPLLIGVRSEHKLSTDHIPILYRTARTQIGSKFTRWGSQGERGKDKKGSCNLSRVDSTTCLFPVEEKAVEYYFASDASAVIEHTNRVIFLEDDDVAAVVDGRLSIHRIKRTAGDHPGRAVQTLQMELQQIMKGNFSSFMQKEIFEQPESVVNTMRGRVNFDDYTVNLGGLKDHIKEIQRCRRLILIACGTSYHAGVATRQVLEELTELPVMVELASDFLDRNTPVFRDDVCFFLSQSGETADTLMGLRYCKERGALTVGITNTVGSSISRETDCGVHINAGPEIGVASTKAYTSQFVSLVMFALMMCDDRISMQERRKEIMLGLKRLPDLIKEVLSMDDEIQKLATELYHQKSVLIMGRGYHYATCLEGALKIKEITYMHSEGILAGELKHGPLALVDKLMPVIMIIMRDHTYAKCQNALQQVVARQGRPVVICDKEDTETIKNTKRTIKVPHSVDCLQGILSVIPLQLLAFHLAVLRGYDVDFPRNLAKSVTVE

[2] = compound: CC(=O)c1cnc2ccc(-c3cc(Cl)c(O)c(Cl)c3)nc2c1N[C@H]1CC[C@H](CN(C)C)CC1
Summary of the method: as §1

[3] = compound: CC(C)(C)Cn1c(N)nc2ccc(-c3[nH]c(C(C)(C)C)nc3-c3ccc(F)cc3)nc21 [ralimetinib]
Summary of the method: as §1

[4] = compound: CC(C)(O)CC(=O)NCCn1ccc2ncnc(Nc3ccc(Oc4cccc(C(F)(F)F)c4)c(Cl)c3)c21
Summary of the method: as §1

[5] = compound: CC(C)C1=C2N=C(C=C(N2N=C1)NCC3=CC=CC=C3)NCCCCCCN
Summary of the method: as §1

[6] = compound: CC1=C(C(CC(=O)N1)C2=CC=C(C=C2)C(F)(F)F)C(=O)NC3=C(C=C4C(=C3)C=NN4)F
Summary of the method: as §1

[7] = compound: CC1=C(C2=C(C=C1)C(=O)C3=CC=CC=C3N2CCCN)C
Summary of the method: as §1

[8] = compound: CC1=C(C=C(C=C1)NC(=O)C2=CC(=CC=C2)C(C)(C)C#N)NC3=CC4=C(C=C3)N=CN(C4=O)C
Summary of the method: as §1

[9] = compound: CC1=C(C=C(C=C1)NC(=O)C2=CC(=CC=C2)N(C)C)NC(=O)C3=CC=C(C=C3)O
Summary of the method: as §1

[10] = compound: CC1=CC=C(C=C1)SC2=C3C=C(SC3=CN=C2)C(=O)N
Summary of the method: as §1

[11] = compound: CCCS(=O)(=O)Nc1ccc(F)c(C(=O)c2c[nH]c3ncc(-c4ccc(Cl)cc4)cc23)c1F [vemurafenib]
Summary of the method: as §1

[12] = compound: CCCS(=O)(=O)Nc1ccc(F)c(C(=O)c2c[nH]c3ncc(Cl)cc23)c1F
Summary of the method: as §1

[13] = compound: CCN(CCCOc1ccc2c(Nc3cc(CC(=O)Nc4cccc(F)c4)[nH]n3)ncnc2c1)CCOP(=O)(O)O [barasertib]
Summary of the method: as §1

[14] = compound: CC[C@@H]1C(=O)N(C)c2cnc(Nc3ccc(C(=O)NC4CCN(C)CC4)cc3OC)nc2N1C1CCCC1
Summary of the method: as §1

[15] = compound: CC[C@@H]1C(=O)N(C)c2cnc(Nc3ccc(C(=O)N[C@H]4CC[C@H](N5CCN(CC6CC6)CC5)CC4)cc3OC)nc2N1C(C)C [volasertib]
Summary of the method: as §1

[16] = compound: CCn1c(C(=O)N(C2CC2)C2CC2)cc2c3c(ncn3C)c(Nc3cc(C)n(C)n3)nc21
Summary of the method: as §1

[17] = compound: CCn1cc(-c2ccnc3[nH]c(-c4cccc(CN(C)C)c4)cc23)c(-c2ccc(NC(=O)N(C)C)cc2)n1
Summary of the method: as §1

[18] = compound: CN1CCC(CNc2ccc3ncc(-c4cccc(OC(F)(F)F)c4)n3n2)CC1
Summary of the method: as §1

[19] = compound: CN1CCN(CCOc2cc(OC3CCOCC3)c3c(Nc4c(Cl)ccc5c4OCO5)ncnc3c2)CC1 [saracatinib]
Summary of the method: as §1

[20] = compound: CN1CCN(c2nc(C3=C(c4c[nH]c5ccccc45)C(=O)NC3=O)c3ccccc3n2)CC1 [sotrastaurin]
Summary of the method: as §1

Measured: log2 fold change

GAB2 (UniProt Q9UQC2)
inactive: [1] 0.018 | [2] -0.034 | [3] -0.006 | [4] -0.01 | [5] 0.021 | [6] -0.004 | [7] -0.018 | [8] 0.035 | [9] -0.014 | [10] -0.001 | [11] -0.03 | [12] 0.007 | [13] -0.021 | [14] -0.019 | [15] -0.018 | [16] -0.031 | [17] -0.044 | [18] -0.01 | [19] 0.03 | [20] 0.008

GCC1 (UniProt Q96CN9)
inactive: [1] -0.017 | [2] 0.004 | [3] 0.019 | [4] -0.032 | [5] -0.013 | [6] -0.026 | [7] 0.028 | [8] 0.034 | [9] 0.004 | [10] -0.031 | [11] 0.044 | [12] 0.003 | [13] 0.057 | [14] 0.078 | [15] -0.007 | [16] 0.002 | [17] 0.133 | [18] -0.07 | [19] 0.017 | [20] 0.051

GEMIN6 (UniProt Q8WXD5)
inactive: [1] 0.062 | [2] -0.019 | [3] -0.033 | [4] -0.026 | [5] -0.008 | [6] 0.008 | [7] -0.01 | [8] -0.007 | [9] 0.032 | [10] -0.014 | [11] 0.021 | [12] 0.048 | [13] 0.086 | [14] 0.097 | [15] 0.015 | [16] -0.01 | [17] -0.083 | [18] 0.029 | [19] 0.005 | [20] -0.029

GAGE5 (UniProt Q13069)
inactive: [1] -0.035 | [2] -0.075 | [3] -0.054 | [4] -0.092 | [5] 0.018 | [6] -0.028 | [7] 0.039 | [8] 0.045 | [9] -0.024 | [10] 0.032 | [11] 0.018 | [12] -0.115 | [13] 0.171 | [14] 0.009 | [15] 0.118 | [16] -0.018 | [17] -0.095 | [18] -0.037 | [19] 0.008 | [20] 0.048

GALNT12 (UniProt Q8IXK2)
inactive: [1] 0.003 | [2] 0.011 | [3] 0.023 | [4] 0.016 | [5] 0.035 | [6] 0.02 | [7] -0.017 | [8] -0.052 | [9] -0.017 | [10] 0.016 | [11] 0.046 | [12] -0.015 | [13] 0.079 | [14] -0.038 | [15] 0.038 | [16] -0.04 | [17] 0.04 | [18] -0.106 | [19] 0.139 | [20] 0.073

FTSJ3 (UniProt Q8IY81)
inactive: [1] 0.05 | [2] 0.005 | [3] 0.026 | [4] -0.033 | [5] 0.086 | [6] 0.016 | [7] -0.037 | [8] -0.01 | [9] 0.002 | [10] 0.04 | [11] -0.004 | [12] -0.011 | [13] 0.006 | [14] 0.011 | [15] -0.033 | [16] 0.024 | [17] 0 | [18] -0.005 | [19] 0.015 | [20] -0.003

Random excerpt: 2 records from the list, in no set order.
GAB2 (UniProt Q9UQC2)
inactive: [1] 0.018 | [2] -0.034 | [3] -0.006 | [4] -0.01 | [5] 0.021 | [6] -0.004 | [7] -0.018 | [8] 0.035 | [9] -0.014 | [10] -0.001 | [11] -0.03 | [12] 0.007 | [13] -0.021 | [14] -0.019 | [15] -0.018 | [16] -0.031 | [17] -0.044 | [18] -0.01 | [19] 0.03 | [20] 0.008

GALNT12 (UniProt Q8IXK2)
inactive: [1] 0.003 | [2] 0.011 | [3] 0.023 | [4] 0.016 | [5] 0.035 | [6] 0.02 | [7] -0.017 | [8] -0.052 | [9] -0.017 | [10] 0.016 | [11] 0.046 | [12] -0.015 | [13] 0.079 | [14] -0.038 | [15] 0.038 | [16] -0.04 | [17] 0.04 | [18] -0.106 | [19] 0.139 | [20] 0.073

(list continues)

GDPGP1 (UniProt Q6ZNW5)
inactive: [1] -0.042 | [2] 0.01 | [3] -0.029 | [4] -0.013 | [5] -0.073 | [6] -0.012 | [7] 0.002 | [8] -0.103 | [9] 0.047 | [10] 0.007 | [11] 0.005 | [12] 0.013 | [13] -0.037 | [14] -0.063 | [15] -0.031 | [16] -0.027 | [17] -0.165 | [18] 0.06 | [19] -0.033 | [20] 0.068

GATD1 (UniProt Q8NB37)
inactive: [1] 0.021 | [2] 0.022 | [3] -0.018 | [4] -0.033 | [5] 0.069 | [6] 0.036 | [7] 0.008 | [8] -0.011 | [9] -0.067 | [10] -0.022 | [11] -0.008 | [12] 0.021 | [13] 0.034 | [14] -0.06 | [15] -0.021 | [16] -0.004 | [17] -0.026 | [18] 0.059 | [19] -0.024 | [20] 0.035

FSCN1 (UniProt Q16658)
inactive: [1] -0.001 | [2] 0.025 | [3] -0.026 | [4] -0.007 | [5] -0.015 | [6] -0.024 | [7] 0.021 | [8] -0.001 | [9] 0.007 | [10] 0.01 | [11] -0.047 | [12] -0.006 | [13] -0.043 | [14] -0.048 | [15] 0.009 | [16] 0.005 | [17] 0.093 | [18] -0.028 | [19] -0.016 | [20] -0.034

GFM1 (UniProt Q96RP9)
inactive: [1] 0.017 | [2] 0.04 | [3] -0.025 | [4] -0.019 | [5] 0.031 | [6] -0.011 | [7] 0.011 | [8] 0.012 | [9] -0.008 | [10] -0.017 | [11] 0.003 | [12] 0.031 | [13] 0.036 | [14] -0.033 | [15] -0.035 | [16] -0.013 | [17] -0.014 | [18] -0.025 | [19] -0.016 | [20] -0.017

FTH1 (UniProt P02794)
inactive: [1] 0.099 | [2] -0.035 | [3] 0.001 | [4] -0.002 | [5] 0.004 | [6] -0.019 | [7] -0.015 | [8] 0.016 | [9] 0.071 | [10] 0.007 | [11] -0.053 | [12] 0.019 | [13] 0.012 | [14] -0.035 | [15] -0.051 | [16] 0.013 | [17] -0.107 | [18] 0.058 | [19] 0.009 | [20] -0.002

GEMIN4 (UniProt P57678)
inactive: [1] 0.003 | [2] -0.028 | [3] 0.056 | [4] 0.001 | [5] 0.051 | [6] 0.007 | [7] -0.048 | [8] -0.005 | [9] 0.059 | [10] 0.011 | [11] 0.036 | [12] 0.025 | [13] 0.041 | [14] -0.037 | [15] -0.053 | [16] 0.023 | [17] -0.168 | [18] -0.091 | [19] 0.091 | [20] 0.041

GCC2 (UniProt Q8IWJ2)
inactive: [1] 0.023 | [2] -0.014 | [3] 0.008 | [4] 0.01 | [5] 0.013 | [6] -0.014 | [7] -0.018 | [8] 0.031 | [9] -0.001 | [10] -0.008 | [11] 0.018 | [12] 0.004 | [13] 0.003 | [14] 0.033 | [15] -0.002 | [16] 0.024 | [17] -0.037 | [18] 0.012 | [19] 0.01 | [20] -0.004

GFPT1 (UniProt Q06210)
inactive: [1] 0.014 | [2] -0.014 | [3] 0.002 | [4] -0.024 | [5] 0.022 | [6] -0.015 | [7] 0.012 | [8] 0.009 | [9] 0.014 | [10] 0.01 | [11] 0.014 | [12] 0.02 | [13] 0.009 | [14] -0.026 | [15] -0.036 | [16] 0.007 | [17] 0.009 | [18] -0.042 | [19] 0.009 | [20] -0.014

GART (UniProt P22102)
inactive: [1] 0.007 | [2] 0.009 | [3] 0.01 | [4] 0.036 | [5] 0.013 | [6] -0.014 | [7] 0.009 | [8] -0.027 | [9] -0.006 | [10] 0.021 | [11] 0.007 | [12] 0.001 | [13] 0.028 | [14] -0.066 | [15] -0.054 | [16] 0.038 | [17] 0.124 | [18] -0.013 | [19] 0.011 | [20] -0.023

GCLC (UniProt P48506)
inactive: [1] -0.006 | [2] 0.014 | [3] -0.008 | [4] -0.018 | [5] -0.007 | [6] -0.022 | [7] 0.004 | [8] -0.008 | [9] 0.026 | [10] 0.007 | [11] -0.029 | [12] 0.002 | [13] 0.01 | [14] -0.01 | [15] -0.027 | [16] -0.028 | [17] -0.043 | [18] -0.002 | [19] 0.018 | [20] 0.018

From the supplement of paper PMC10849652
